Experimental data published in article PMC6912806.
Results are given in words; binding and its absence hold for the method and conditions named. In cells and extracts the contact can be indirect. A result given as binding can be weak or reduced; the word gives no strength.

Tests used:
[1] = target: T1, mRFP-CAST1/ERC2 full-length (rat) (UniProt Q8K3M6); assay: co-IP; HEK293T cells co-transfected with FUG-SRPK1, -2 or -3-W and FUmRFP-CAST1/ERC2-W; RIPA buffer; reciprocal immunoprecipitation with anti-GFP or anti-mCherry overnight at 4 °C, Protein A/G Plus Agarose; normal rabbit IgG as control
T1 sequence: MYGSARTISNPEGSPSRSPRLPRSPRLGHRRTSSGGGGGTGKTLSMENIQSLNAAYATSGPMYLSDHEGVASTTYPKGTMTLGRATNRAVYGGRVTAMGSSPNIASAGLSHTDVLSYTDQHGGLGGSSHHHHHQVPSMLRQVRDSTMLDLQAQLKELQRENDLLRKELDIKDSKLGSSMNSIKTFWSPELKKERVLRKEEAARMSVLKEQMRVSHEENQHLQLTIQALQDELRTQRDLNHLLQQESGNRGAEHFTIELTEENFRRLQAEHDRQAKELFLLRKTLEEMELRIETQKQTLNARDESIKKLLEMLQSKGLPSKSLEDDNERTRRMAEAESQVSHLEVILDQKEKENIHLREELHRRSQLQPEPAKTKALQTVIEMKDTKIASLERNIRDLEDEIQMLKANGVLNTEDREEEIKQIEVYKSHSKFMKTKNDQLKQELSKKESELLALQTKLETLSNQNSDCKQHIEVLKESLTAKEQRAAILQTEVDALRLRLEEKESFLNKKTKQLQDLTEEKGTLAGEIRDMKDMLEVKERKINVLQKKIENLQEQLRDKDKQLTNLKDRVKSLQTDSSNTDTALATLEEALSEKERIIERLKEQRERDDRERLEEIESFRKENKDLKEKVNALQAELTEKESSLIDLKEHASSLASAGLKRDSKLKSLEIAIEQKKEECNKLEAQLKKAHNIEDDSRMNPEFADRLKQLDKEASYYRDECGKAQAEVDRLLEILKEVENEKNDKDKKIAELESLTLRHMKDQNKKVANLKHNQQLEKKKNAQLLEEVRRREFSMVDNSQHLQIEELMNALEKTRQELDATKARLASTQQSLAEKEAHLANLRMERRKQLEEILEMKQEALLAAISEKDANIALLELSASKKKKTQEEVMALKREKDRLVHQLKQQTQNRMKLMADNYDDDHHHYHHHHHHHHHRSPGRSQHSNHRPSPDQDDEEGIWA

[2] = target: T1, mRFP-CAST1/ERC2 full-length (rat); assay: co-IP; SH-SY5Y cells co-transfected with pEGFP-SRPK1, -2 or -3 and pmRFP-CAST1/ERC2; RIPA buffer; reciprocal immunoprecipitation with anti-GFP or anti-mCherry overnight at 4 °C, Protein A/G Plus Agarose; normal rabbit IgG as control

binding [1]	binding [2]	Substance
no binding	no binding	EGFP-SRPK1 (rat) (enzyme)
binds	binds	EGFP-SRPK2 (rat) (enzyme)
no binding	no binding	EGFP-SRPK3 (rat) (enzyme)
